Experimental data taken from the supplement of paper PMC12823440, “Inhibitors supercharge kinase turnover through native proteolytic circuits” (Nature, 2025).
Structures can show the parent of a compound that is named as a salt. This is one part of the list. Hit calls seldom repeat between salt and free forms of one compound.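 In K562 cells expressing nanoluciferase-fused kinases, luminescence was recorded at 4 h intervals between 2 and 18 h, normalized as percent of control with DMSO at 100% and a positive control at 0%. A significant (2 sigma) signal drop marks a time point as decreased. The authors' rule for a hit is not shown and takes in more than the number of time points.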

Protein sequences, listed by entry. Tags and fused reporters are not part of them. Lines headed by an entry give the natural chain unless they say otherwise; changes in a name come on top.
UniProt Q06187: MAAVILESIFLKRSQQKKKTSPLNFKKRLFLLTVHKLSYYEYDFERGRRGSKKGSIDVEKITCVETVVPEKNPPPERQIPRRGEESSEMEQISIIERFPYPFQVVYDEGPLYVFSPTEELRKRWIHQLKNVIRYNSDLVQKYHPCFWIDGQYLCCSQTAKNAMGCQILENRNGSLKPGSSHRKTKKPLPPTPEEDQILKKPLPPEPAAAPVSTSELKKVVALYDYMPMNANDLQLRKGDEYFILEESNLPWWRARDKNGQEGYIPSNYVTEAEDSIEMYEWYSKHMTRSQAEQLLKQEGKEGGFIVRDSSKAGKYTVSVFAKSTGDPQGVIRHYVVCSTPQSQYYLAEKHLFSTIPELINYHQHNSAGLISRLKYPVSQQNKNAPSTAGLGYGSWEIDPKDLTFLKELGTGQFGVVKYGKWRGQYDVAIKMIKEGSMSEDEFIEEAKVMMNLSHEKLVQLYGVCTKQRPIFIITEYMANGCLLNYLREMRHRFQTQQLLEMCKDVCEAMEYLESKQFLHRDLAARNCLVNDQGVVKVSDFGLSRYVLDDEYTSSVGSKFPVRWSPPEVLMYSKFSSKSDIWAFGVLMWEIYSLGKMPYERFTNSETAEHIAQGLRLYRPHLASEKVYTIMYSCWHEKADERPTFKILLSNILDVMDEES
UniProt Q9UQM7, whole entry: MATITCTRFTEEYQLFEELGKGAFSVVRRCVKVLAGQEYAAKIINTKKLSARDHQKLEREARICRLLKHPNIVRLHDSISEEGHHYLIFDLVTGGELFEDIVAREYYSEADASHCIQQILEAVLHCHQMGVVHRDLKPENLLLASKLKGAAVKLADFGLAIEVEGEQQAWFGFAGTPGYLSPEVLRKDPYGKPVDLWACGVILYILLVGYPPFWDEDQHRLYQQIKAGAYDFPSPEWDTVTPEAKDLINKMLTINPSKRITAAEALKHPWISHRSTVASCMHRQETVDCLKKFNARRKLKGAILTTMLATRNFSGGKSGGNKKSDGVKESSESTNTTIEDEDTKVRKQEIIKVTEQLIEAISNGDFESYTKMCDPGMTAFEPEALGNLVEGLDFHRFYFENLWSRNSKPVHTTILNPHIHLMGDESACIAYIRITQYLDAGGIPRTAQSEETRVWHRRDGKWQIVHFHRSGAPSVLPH
UniProt Q15131: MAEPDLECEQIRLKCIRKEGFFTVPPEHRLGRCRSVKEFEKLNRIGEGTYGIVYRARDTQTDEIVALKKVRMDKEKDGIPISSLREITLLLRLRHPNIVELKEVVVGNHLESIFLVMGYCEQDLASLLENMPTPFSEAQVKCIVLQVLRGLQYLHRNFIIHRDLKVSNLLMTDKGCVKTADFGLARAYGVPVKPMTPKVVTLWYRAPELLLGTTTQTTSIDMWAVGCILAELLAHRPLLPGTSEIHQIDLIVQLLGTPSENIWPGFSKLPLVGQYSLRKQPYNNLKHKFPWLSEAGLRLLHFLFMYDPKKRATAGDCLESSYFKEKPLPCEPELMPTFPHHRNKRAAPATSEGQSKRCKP
UniProt P11802: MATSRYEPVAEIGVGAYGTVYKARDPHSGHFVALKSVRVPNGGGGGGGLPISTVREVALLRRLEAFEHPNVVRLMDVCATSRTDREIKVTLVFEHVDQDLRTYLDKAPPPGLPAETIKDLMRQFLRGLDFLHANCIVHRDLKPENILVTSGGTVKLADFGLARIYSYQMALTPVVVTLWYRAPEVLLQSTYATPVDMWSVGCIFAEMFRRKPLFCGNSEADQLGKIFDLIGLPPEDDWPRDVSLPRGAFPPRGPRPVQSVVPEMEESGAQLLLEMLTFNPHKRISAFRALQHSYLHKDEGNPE
UniProt Q00535, whole entry, looked up: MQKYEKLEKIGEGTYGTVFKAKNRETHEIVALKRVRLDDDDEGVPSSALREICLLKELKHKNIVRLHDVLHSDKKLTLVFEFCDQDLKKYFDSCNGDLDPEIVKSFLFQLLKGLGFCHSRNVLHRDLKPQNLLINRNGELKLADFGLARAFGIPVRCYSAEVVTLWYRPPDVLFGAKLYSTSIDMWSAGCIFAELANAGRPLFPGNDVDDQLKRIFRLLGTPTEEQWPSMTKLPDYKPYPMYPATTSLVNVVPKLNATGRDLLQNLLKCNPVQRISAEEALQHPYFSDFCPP
UniProt Q00534, whole entry: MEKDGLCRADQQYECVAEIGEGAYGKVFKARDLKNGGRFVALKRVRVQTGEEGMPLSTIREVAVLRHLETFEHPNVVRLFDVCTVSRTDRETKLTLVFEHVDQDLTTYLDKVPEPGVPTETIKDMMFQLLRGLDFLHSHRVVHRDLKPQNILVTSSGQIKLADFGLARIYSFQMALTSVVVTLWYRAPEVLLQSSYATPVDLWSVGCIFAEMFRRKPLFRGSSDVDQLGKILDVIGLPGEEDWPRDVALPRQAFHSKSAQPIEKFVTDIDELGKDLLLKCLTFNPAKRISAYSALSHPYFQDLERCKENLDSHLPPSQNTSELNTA
UniProt P50613: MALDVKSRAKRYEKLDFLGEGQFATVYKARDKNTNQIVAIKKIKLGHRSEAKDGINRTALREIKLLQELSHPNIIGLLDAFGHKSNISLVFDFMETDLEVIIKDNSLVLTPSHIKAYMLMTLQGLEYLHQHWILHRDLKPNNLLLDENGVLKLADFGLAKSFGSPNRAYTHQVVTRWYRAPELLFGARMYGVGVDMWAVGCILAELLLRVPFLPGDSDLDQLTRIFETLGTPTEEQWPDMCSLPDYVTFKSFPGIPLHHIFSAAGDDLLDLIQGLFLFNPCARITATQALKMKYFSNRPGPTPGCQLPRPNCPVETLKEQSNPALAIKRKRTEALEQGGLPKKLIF
UniProt O96017, whole entry: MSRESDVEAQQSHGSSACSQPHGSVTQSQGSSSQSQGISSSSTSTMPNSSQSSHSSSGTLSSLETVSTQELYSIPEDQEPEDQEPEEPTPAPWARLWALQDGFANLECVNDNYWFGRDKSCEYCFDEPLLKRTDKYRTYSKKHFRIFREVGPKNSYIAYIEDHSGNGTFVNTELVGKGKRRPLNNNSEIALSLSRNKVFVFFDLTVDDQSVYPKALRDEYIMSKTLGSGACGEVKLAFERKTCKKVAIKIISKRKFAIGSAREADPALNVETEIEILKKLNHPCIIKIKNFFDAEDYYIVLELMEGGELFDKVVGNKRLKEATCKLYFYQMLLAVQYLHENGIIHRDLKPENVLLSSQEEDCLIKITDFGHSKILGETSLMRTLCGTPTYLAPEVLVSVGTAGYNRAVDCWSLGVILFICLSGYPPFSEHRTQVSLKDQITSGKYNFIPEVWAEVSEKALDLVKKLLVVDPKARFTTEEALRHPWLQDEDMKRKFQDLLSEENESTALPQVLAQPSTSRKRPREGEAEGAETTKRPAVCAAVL
UniProt P07333, whole entry: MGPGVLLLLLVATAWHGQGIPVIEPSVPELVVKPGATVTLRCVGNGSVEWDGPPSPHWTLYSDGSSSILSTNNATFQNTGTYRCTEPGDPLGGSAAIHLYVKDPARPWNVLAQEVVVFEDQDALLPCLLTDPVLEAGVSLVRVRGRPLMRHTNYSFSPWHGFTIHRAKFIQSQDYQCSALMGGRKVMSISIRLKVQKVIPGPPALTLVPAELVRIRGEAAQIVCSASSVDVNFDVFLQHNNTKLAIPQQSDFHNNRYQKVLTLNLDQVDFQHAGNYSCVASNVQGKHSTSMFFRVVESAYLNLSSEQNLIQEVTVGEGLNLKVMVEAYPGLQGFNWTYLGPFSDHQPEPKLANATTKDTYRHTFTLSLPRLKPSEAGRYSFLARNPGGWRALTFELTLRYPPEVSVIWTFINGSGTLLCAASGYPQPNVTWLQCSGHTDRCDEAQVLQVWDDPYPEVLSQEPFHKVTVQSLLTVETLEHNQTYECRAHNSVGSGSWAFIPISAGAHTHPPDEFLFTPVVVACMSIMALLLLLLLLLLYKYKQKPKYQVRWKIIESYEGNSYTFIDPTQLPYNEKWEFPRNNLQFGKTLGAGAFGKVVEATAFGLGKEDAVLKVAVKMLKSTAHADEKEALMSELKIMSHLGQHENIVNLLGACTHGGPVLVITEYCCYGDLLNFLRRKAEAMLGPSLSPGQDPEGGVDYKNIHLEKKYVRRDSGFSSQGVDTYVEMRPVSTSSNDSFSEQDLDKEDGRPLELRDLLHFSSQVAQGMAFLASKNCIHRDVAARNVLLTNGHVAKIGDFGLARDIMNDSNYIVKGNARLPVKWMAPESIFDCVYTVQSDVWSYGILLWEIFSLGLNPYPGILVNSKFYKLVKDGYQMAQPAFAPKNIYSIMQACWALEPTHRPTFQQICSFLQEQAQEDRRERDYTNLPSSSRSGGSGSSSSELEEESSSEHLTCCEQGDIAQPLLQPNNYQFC
UniProt P41240: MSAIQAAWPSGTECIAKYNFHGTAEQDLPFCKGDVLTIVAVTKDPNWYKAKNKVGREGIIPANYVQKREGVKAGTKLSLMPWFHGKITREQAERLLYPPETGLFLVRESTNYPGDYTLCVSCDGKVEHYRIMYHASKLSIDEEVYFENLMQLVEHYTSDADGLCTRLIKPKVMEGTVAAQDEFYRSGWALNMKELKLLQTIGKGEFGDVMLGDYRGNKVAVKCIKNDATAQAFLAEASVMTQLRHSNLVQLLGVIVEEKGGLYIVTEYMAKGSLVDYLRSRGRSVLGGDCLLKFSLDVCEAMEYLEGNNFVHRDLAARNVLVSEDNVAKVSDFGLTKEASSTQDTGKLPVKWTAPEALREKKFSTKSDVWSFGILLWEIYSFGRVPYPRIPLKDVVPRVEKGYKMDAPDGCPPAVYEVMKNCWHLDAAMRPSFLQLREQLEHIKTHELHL
UniProt P48729: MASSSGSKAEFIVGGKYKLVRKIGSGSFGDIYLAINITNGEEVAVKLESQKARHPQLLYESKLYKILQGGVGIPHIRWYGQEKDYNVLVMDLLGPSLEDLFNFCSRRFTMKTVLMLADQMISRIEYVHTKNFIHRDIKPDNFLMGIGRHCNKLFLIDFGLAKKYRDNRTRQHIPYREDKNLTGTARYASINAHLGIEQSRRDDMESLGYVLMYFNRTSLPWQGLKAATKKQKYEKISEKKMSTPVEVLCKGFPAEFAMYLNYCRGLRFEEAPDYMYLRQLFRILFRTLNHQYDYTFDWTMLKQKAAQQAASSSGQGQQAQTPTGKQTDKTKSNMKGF
UniProt Q08345: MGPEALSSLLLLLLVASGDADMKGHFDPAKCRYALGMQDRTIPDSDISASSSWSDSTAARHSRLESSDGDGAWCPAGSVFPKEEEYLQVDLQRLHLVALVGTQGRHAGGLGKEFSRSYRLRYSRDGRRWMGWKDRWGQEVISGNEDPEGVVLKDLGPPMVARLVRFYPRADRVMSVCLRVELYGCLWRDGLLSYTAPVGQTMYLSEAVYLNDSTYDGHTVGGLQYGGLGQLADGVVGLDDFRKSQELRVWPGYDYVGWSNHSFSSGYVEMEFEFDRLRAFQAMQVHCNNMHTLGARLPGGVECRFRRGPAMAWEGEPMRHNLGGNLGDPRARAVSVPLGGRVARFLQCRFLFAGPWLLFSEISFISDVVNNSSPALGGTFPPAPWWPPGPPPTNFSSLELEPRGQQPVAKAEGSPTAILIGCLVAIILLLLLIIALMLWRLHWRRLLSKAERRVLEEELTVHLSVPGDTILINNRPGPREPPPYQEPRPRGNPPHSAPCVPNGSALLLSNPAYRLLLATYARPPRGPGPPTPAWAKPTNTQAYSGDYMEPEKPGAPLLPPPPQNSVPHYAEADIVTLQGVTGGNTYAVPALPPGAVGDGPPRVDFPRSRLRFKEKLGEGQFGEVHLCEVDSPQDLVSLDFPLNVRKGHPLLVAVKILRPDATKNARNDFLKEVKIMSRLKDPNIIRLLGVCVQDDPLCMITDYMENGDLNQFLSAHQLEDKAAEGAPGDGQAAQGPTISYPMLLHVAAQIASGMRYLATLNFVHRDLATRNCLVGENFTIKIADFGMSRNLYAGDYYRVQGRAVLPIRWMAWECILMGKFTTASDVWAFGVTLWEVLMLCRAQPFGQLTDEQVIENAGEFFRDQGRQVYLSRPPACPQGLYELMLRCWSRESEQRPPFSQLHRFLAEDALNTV
UniProt Q92630: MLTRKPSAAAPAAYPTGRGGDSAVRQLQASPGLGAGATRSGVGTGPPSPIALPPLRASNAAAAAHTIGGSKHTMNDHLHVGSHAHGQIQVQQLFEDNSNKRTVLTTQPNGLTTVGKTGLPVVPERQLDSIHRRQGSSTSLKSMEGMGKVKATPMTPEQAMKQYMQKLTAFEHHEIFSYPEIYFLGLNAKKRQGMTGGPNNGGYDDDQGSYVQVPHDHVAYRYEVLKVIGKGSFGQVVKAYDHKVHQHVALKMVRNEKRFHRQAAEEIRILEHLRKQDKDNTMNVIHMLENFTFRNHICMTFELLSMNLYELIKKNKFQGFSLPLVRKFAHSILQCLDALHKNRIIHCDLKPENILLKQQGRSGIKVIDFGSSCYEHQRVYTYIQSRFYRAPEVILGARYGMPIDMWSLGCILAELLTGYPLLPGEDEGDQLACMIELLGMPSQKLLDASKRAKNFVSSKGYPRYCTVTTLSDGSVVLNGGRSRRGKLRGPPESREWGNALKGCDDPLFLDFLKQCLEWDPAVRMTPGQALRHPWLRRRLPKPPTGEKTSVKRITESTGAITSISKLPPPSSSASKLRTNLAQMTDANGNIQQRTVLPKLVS

Key:
Experiment in all cases: kinase-Nluc reporter destabilization hit call (1 = scored as downregulated) (binary); higher = compound decreases kinase abundance
Settings in all cases: K562; 2-18 h
BRAF_V600E = tested on: BRAF_V600E
BTK = BTK (UniProt Q06187)
CAMK2A = CAMK2A (UniProt Q9UQM7)
CAMK2G = CAMK2G (UniProt Q13555)
CDK10 = CDK10 (UniProt Q15131)
CDK2 = CDK2 (UniProt P24941)
CDK3 = CDK3 (UniProt Q00526)
CDK4 = CDK4 (UniProt P11802)
CDK5 = CDK5 (UniProt Q00535)
CDK6 = CDK6 (UniProt Q00534)
CDK7 = CDK7 (UniProt P50613)
CDK9 = CDK9 (UniProt P50750)
CHEK2 = CHEK2 (UniProt O96017)
CSF1R = CSF1R (UniProt P07333)
CSK = CSK (UniProt P41240)
CSNK1A1 = CSNK1A1 (UniProt P48729)
CSNK1D = CSNK1D (UniProt P48730)
DDR1 = DDR1 (UniProt Q08345)
DYRK1B = DYRK1B (UniProt Q9Y463)
DYRK2 = DYRK2 (UniProt Q92630)

Row | Structure (SMILES) | kinase-Nluc reporter destabilization hit call (BRAF_V600E) | kinase-Nluc reporter destabilization hit call (BTK) | kinase-Nluc reporter destabilization hit call (CAMK2A) | kinase-Nluc reporter destabilization hit call (CAMK2G) | kinase-Nluc reporter destabilization hit call (CDK10) | kinase-Nluc reporter destabilization hit call (CDK2) | kinase-Nluc reporter destabilization hit call (CDK3) | kinase-Nluc reporter destabilization hit call (CDK4) | kinase-Nluc reporter destabilization hit call (CDK5) | kinase-Nluc reporter destabilization hit call (CDK6) | kinase-Nluc reporter destabilization hit call (CDK7) | kinase-Nluc reporter destabilization hit call (CDK9) | kinase-Nluc reporter destabilization hit call (CHEK2) | kinase-Nluc reporter destabilization hit call (CSF1R) | kinase-Nluc reporter destabilization hit call (CSK) | kinase-Nluc reporter destabilization hit call (CSNK1A1) | kinase-Nluc reporter destabilization hit call (CSNK1D) | kinase-Nluc reporter destabilization hit call (DDR1) | kinase-Nluc reporter destabilization hit call (DYRK1B) | kinase-Nluc reporter destabilization hit call (DYRK2)
1 | O=c1oc2cc(O)ccc2c2ccccc12 [Urolithin B] (10 µM) | inactive: 0 | inactive: 0 | inactive: 0 | inactive: 0 | inactive: 0 | inactive: 0 | inactive: 0 | inactive: 0 | inactive: 0 | inactive: 0 | inactive: 0 | inactive: 0 | inactive: 0 | inactive: 0 | inactive: 0 | inactive: 0 | inactive: 0 | inactive: 0 | inactive: 0 | inactive: 0
2 | COc1cc(N2CCN(C)CC2)ccc1Nc1ncc2c(n1)N(C1CCC1)C(=O)N(c1c(C)cccc1C)C2 (2.5 µM) | inactive: 0 | inactive: 0 | inactive: 0 | inactive: 0 | inactive: 0 | inactive: 0 | inactive: 0 | inactive: 0 | inactive: 0 | inactive: 0 | inactive: 0 | inactive: 0 | inactive: 0 | inactive: 0 | inactive: 0 | inactive: 0 | inactive: 0 | inactive: 0 | inactive: 0 | inactive: 0
3 | Fc1ccc(-c2nc(-c3ccccc3F)[nH]c2-c2ccncc2)cc1 (2.5 µM) | inactive: 0 | inactive: 0 | inactive: 0 | inactive: 0 | inactive: 0 | inactive: 0 | inactive: 0 | inactive: 0 | inactive: 0 | inactive: 0 | inactive: 0 | inactive: 0 | inactive: 0 | inactive: 0 | inactive: 0 | inactive: 0 | inactive: 0 | inactive: 0 | inactive: 0 | inactive: 0
4 | Cn1c(=O)c(F)c(Nc2ccc(I)cc2F)c2c(=O)n(C[C@@H](O)CO)cnc21 (10 µM) | inactive: 0 | inactive: 0 | inactive: 0 | inactive: 0 | inactive: 0 | inactive: 0 | inactive: 0 | inactive: 0 | inactive: 0 | inactive: 0 | inactive: 0 | inactive: 0 | inactive: 0 | inactive: 0 | inactive: 0 | inactive: 0 | inactive: 0 | inactive: 0 | inactive: 0 | inactive: 0
5 | Cc1c(CN2CCN(S(C)(=O)=O)CC2)sc2c(N3CCOCC3)nc(-c3cnc(N)nc3)nc12 (2.5 µM) | inactive: 0 | inactive: 0 | inactive: 0 | inactive: 0 | inactive: 0 | inactive: 0 | inactive: 0 | inactive: 0 | inactive: 0 | inactive: 0 | inactive: 0 | inactive: 0 | inactive: 0 | inactive: 0 | inactive: 0 | inactive: 0 | inactive: 0 | inactive: 0 | inactive: 0 | inactive: 0
6 | COc1cc(N2CCC(N3CCN(C)CC3)CC2)ccc1Nc1ncc(Cl)c(Nc2ccccc2P(C)(C)=O)n1 [Brigatinib] (2 µM) | inactive: 0 | inactive: 0 | inactive: 0 | inactive: 0 | inactive: 0 | inactive: 0 | inactive: 0 | inactive: 0 | inactive: 0 | inactive: 0 | inactive: 0 | inactive: 0 | inactive: 0 | inactive: 0 | inactive: 0 | inactive: 0 | inactive: 0 | inactive: 0 | inactive: 0 | inactive: 0
7 | C=CC(=O)Nc1ccc(CN(C(=O)Nc2c(Cl)c(OC)cc(OC)c2Cl)c2cc(Nc3ccc(N4CCN(C)CC4)cc3)ncn2)cc1 (10 µM) | inactive: 0 | inactive: 0 | inactive: 0 | inactive: 0 | inactive: 0 | inactive: 0 | inactive: 0 | inactive: 0 | inactive: 0 | inactive: 0 | inactive: 0 | inactive: 0 | inactive: 0 | inactive: 0 | inactive: 0 | inactive: 0 | inactive: 0 | inactive: 0 | inactive: 0 | inactive: 0
8 | Cc1cc2cc(Nc3ccnc(Nc4ccc5[nH]c(C)cc5c4)n3)ccc2[nH]1 (2.5 µM) | inactive: 0 | inactive: 0 | inactive: 0 | inactive: 0 | inactive: 0 | inactive: 0 | inactive: 0 | inactive: 0 | inactive: 0 | inactive: 0 | inactive: 0 | inactive: 0 | inactive: 0 | inactive: 0 | inactive: 0 | inactive: 0 | inactive: 0 | inactive: 0 | inactive: 0 | inactive: 0
9 | CCn1c(=O)c(-c2ccc(-c3cncs3)cc2Cl)cc2cnc(Nc3ccc(N4CCN(C)CC4)cc3)nc21 (2.5 µM) | inactive: 0 | inactive: 0 | inactive: 0 | inactive: 0 | inactive: 0 | inactive: 0 | inactive: 0 | inactive: 0 | inactive: 0 | inactive: 0 | inactive: 0 | inactive: 0 | inactive: 0 | inactive: 0 | inactive: 0 | inactive: 0 | inactive: 0 | inactive: 0 | inactive: 0 | inactive: 0
10 | CN1CCN(c2ccc(C(=O)Nc3cc(-c4cccc(NS(=O)(=O)c5ccccc5)c4)[nH]n3)cc2)CC1 [BPR1J-097 Hydrochloride] (2.5 µM) | inactive: 0 | inactive: 0 | inactive: 0 | inactive: 0 | inactive: 0 | inactive: 0 | inactive: 0 | inactive: 0 | inactive: 0 | inactive: 0 | inactive: 0 | inactive: 0 | inactive: 0 | inactive: 0 | inactive: 0 | inactive: 0 | inactive: 0 | inactive: 0 | inactive: 0 | inactive: 0
11 | Cc1c(CN2CCN(C(=O)[C@H](C)O)CC2)sc2c(N3CCOCC3)nc(-c3cnc(N)nc3)nc12 [Apitolisib] (10 µM) | inactive: 0 | inactive: 0 | inactive: 0 | inactive: 0 | inactive: 0 | inactive: 0 | inactive: 0 | inactive: 0 | inactive: 0 | inactive: 0 | active: 1 | inactive: 0 | inactive: 0 | inactive: 0 | inactive: 0 | inactive: 0 | inactive: 0 | inactive: 0 | inactive: 0 | inactive: 0
12 | COc1ccc(C2CC(c3ccccc3)=NN2c2ccc(S(N)(=O)=O)cc2)cc1 (stereo not given) (10 µM) | inactive: 0 | inactive: 0 | inactive: 0 | inactive: 0 | inactive: 0 | inactive: 0 | inactive: 0 | inactive: 0 | inactive: 0 | inactive: 0 | inactive: 0 | inactive: 0 | inactive: 0 | inactive: 0 | inactive: 0 | inactive: 0 | inactive: 0 | inactive: 0 | inactive: 0 | inactive: 0
13 | C[C@@H]1C(=O)O[C@H](C)[C@H]1C[C@@H](O)[C@](C)(O)[C@H]1CC[C@@]2(O)C3=CC(=O)[C@@H]4C[C@@H](O)[C@@H](O)C[C@]4(C)[C@H]3CC[C@]12C [Cyasterone] (10 µM) | inactive: 0 | inactive: 0 | inactive: 0 | inactive: 0 | inactive: 0 | inactive: 0 | inactive: 0 | inactive: 0 | inactive: 0 | inactive: 0 | inactive: 0 | inactive: 0 | inactive: 0 | inactive: 0 | inactive: 0 | inactive: 0 | inactive: 0 | inactive: 0 | inactive: 0 | inactive: 0
14 | OC[C@H]1O[C@@H](Oc2cc3c(O)cc(O)cc3[o+]c2-c2cc(O)c(O)c(O)c2)[C@H](O)[C@@H](O)[C@@H]1O [Delphinidin 3-glucoside (chloride)] (10 µM) | inactive: 0 | inactive: 0 | inactive: 0 | inactive: 0 | inactive: 0 | inactive: 0 | inactive: 0 | inactive: 0 | inactive: 0 | inactive: 0 | inactive: 0 | inactive: 0 | inactive: 0 | inactive: 0 | inactive: 0 | inactive: 0 | inactive: 0 | inactive: 0 | inactive: 0 | inactive: 0
15 | CCn1c(C(=O)N(C2CC2)C2CC2)cc2c3c(ncn3C)c(Nc3cc(C)n(C)n3)nc21 (10 µM) | inactive: 0 | inactive: 0 | inactive: 0 | inactive: 0 | inactive: 0 | inactive: 0 | inactive: 0 | inactive: 0 | inactive: 0 | inactive: 0 | inactive: 0 | inactive: 0 | inactive: 0 | inactive: 0 | inactive: 0 | inactive: 0 | inactive: 0 | inactive: 0 | inactive: 0 | inactive: 0
16 | CC(C)(C)c1ccc(S(=O)(=O)Nc2ccc(-n3ccnc3)cc2)cc1 (10 µM) | inactive: 0 | inactive: 0 | inactive: 0 | inactive: 0 | inactive: 0 | inactive: 0 | inactive: 0 | inactive: 0 | inactive: 0 | inactive: 0 | inactive: 0 | inactive: 0 | inactive: 0 | inactive: 0 | inactive: 0 | inactive: 0 | inactive: 0 | inactive: 0 | inactive: 0 | inactive: 0
17 | COc1cc2c[n+](C)c3c4cc5c(cc4ccc3c2cc1OC)OCO5 [Nitidine (chloride)] (2 µM) | inactive: 0 | inactive: 0 | inactive: 0 | inactive: 0 | inactive: 0 | inactive: 0 | inactive: 0 | inactive: 0 | inactive: 0 | inactive: 0 | inactive: 0 | inactive: 0 | inactive: 0 | inactive: 0 | inactive: 0 | inactive: 0 | inactive: 0 | inactive: 0 | inactive: 0 | inactive: 0
18 | Cc1cc(Nc2nc(N[C@@H](C)c3ccc(F)cc3)c(C#N)cc2F)n[nH]1 (10 µM) | inactive: 0 | inactive: 0 | inactive: 0 | inactive: 0 | inactive: 0 | inactive: 0 | inactive: 0 | inactive: 0 | inactive: 0 | inactive: 0 | inactive: 0 | inactive: 0 | inactive: 0 | inactive: 0 | inactive: 0 | inactive: 0 | inactive: 0 | inactive: 0 | inactive: 0 | inactive: 0

Some values from above.
kinase-Nluc reporter destabilization hit call (CDK2), C[C@@H]1C(=O)O[C@H](C)[C@H]1C[C@@H](O)[C@](C)(O)[C@H]1CC[C@@]2(O)C3=CC(=O)[C@@H]4C[C@@H](O)[C@@H](O)C[C@]4(C)[C@H]3CC[C@]12C [Cyasterone] (10 µM) reads inactive: 0
kinase-Nluc reporter destabilization hit call (CSNK1A1), COc1cc(N2CCN(C)CC2)ccc1Nc1ncc2c(n1)N(C1CCC1)C(=O)N(c1c(C)cccc1C)C2 (2.5 µM) reads inactive: 0
